The target in this assay is T1, Flag-TRIM31 (human) (UniProt Q9BZY9).
T1 sequence: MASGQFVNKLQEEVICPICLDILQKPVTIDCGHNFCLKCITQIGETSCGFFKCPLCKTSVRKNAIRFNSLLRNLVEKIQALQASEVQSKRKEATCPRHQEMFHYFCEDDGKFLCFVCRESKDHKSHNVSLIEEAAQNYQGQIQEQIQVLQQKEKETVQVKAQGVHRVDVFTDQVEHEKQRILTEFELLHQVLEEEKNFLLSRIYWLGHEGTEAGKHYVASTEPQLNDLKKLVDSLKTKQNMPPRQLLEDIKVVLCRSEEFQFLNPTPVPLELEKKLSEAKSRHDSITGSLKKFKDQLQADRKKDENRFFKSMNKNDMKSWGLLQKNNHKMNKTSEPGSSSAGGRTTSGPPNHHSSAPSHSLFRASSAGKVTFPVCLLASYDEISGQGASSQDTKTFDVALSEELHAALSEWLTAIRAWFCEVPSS
The assay is described as follows: co-IP; HEK293T cells transfected with Flag-TRIM31 (or its mutants) and Myc-tagged partners (or NLRP3 mutants); lysates immunoprecipitated with anti-Flag antibody (Fig. 3f,h) and immunoblotted; IP buffer 1.0% Nonidet P 40, 50 mM Tris-HCl pH 7.4, 50 mM EDTA, 150 mM NaCl.

Amino acid sequences for entries named in this document (tags omitted). A change or cut given only in a name is not applied to a line headed by its entry.
UniProt Q96P20: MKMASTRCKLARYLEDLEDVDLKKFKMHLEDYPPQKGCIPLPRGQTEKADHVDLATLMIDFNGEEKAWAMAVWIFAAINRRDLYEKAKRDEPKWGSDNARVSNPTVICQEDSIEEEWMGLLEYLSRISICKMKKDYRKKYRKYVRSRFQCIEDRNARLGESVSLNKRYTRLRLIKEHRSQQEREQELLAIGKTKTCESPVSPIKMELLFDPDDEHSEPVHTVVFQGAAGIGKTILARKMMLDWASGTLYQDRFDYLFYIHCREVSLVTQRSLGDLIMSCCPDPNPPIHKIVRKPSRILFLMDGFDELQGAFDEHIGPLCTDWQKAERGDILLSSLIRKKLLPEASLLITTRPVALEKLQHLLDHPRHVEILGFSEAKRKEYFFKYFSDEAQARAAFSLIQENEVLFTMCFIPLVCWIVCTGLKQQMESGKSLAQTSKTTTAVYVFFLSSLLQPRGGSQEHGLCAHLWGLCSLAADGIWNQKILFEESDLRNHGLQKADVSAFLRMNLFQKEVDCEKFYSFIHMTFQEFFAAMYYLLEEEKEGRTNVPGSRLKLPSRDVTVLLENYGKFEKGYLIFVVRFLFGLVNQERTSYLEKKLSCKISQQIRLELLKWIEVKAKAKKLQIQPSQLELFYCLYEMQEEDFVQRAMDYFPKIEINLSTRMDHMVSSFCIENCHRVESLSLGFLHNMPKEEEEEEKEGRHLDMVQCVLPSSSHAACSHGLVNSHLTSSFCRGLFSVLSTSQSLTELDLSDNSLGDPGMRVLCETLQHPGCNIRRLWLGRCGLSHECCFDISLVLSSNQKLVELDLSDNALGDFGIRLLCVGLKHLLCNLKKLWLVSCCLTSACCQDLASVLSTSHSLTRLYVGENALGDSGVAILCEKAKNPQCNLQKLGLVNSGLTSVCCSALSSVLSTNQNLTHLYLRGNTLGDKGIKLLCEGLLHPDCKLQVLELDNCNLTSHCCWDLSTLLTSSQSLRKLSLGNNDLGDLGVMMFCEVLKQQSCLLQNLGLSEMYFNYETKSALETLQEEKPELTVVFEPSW

Results are given in words; binding and its absence hold for the method and conditions named. Binding seen in cells or lysates may run through a third protein. Binding can be weak; no strength is given. Where a sequence is shown, tags or fusion partners need not be part of it.

In the case of Myc-NLRP3 ΔLRR (domain or fragment), the binding result is listed as “binds”.

For the substance Myc-NLRP3 ΔNACHT (from UniProt Q96P20), the binding result is “binds”.

Take Myc-NLRP3 ΔPYD (domain or fragment): the binding entry is reported as “no binding”.

The values are drawn from publication PMC5155141.
